The source of these data is article doi:10.1101/538223.

Protein sequences, listed by entry. Tags and fused reporters are not part of them.
UniProt Q14155: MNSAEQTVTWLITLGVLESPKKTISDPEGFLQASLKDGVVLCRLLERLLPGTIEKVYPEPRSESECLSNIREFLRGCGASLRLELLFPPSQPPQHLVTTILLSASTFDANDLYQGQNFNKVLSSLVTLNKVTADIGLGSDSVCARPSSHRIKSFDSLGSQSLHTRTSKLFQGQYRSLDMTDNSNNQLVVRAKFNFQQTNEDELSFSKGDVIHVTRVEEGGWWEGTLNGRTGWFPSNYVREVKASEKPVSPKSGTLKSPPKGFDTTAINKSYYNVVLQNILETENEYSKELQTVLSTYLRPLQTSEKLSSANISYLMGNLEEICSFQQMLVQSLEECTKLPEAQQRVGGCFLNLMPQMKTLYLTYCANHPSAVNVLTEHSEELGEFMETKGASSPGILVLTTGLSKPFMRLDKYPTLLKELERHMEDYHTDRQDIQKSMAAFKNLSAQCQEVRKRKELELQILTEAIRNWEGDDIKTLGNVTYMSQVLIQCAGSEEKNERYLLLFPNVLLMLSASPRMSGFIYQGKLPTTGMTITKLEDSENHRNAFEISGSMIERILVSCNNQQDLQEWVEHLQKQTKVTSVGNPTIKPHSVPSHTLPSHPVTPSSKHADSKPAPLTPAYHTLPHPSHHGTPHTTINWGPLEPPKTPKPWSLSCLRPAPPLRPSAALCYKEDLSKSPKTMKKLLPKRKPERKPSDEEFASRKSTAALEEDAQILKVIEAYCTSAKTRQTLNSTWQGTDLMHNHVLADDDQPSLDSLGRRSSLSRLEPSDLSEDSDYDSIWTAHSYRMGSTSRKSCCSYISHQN

For this test, the target named is T1, human GIT2-long/Flag (human) (UniProt Q14161).
T1 sequence: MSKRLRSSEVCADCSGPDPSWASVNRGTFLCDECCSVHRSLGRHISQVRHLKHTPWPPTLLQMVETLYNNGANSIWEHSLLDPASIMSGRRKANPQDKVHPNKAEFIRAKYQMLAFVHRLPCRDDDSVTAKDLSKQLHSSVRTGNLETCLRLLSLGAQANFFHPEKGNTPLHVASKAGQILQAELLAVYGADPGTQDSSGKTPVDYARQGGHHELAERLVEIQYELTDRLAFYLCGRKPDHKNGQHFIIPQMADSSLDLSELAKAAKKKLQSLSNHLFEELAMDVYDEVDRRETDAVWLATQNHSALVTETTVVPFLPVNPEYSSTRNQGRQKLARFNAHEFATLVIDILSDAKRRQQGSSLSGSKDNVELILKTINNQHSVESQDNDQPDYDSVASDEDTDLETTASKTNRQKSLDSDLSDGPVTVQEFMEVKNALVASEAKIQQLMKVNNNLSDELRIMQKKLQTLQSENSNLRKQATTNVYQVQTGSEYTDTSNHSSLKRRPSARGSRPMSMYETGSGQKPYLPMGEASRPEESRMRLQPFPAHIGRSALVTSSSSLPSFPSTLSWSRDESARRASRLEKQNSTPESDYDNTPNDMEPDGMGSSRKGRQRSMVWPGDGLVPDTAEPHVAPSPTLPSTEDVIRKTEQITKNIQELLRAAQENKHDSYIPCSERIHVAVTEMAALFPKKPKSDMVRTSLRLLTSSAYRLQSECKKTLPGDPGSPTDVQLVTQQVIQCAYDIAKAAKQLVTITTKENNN
Put plainly: co-IP.

Results are given in words; binding and its absence hold for the method and conditions named. In cells and extracts the contact can be indirect. Some entries that bind do so weakly or less than the wild type. Tags and fused reporters may be left off the sequences shown.

In the case of “β-PIX, endogenous (from UniProt Q14155 1-803)”, the binding entry is listed as “binds”.
